{"sequences": {"note": "Chains of the proteins cited; added tags and fusions are not shown.", "UniProt P18054, whole entry, looked up": "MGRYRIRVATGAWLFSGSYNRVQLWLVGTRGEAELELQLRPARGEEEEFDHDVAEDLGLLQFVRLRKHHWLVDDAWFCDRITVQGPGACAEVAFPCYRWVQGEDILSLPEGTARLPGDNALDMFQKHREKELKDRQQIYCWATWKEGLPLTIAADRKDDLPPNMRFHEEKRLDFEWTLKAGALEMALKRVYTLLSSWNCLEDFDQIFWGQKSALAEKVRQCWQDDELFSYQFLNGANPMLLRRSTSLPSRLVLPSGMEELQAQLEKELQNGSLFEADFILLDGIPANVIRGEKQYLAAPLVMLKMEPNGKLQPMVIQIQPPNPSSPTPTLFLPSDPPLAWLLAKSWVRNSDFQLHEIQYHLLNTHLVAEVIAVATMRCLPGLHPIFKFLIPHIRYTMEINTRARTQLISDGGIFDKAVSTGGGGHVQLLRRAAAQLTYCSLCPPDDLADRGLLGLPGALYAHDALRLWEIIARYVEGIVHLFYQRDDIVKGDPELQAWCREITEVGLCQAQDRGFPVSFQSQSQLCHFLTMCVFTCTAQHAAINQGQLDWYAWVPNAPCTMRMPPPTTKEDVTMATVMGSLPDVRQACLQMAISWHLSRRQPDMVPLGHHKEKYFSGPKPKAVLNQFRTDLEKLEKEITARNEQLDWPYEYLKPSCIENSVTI"}, "source": "PubChem BioAssay AID1671190", "about": "(National Center for Advancing Translational Sciences (NCATS), 2021)", "note": "Where “and” joins values, the source holds several entries; their conditions need not be identical. Equal entries are not always repeated. Out of some 580,000 compounds screened, about 6,100 (1.1%) were called active. This list was built around the results that the source calls inconclusive (neither active nor inactive); the mix of calls is not that of the screen. The call rests on the fitted dose curve; in most records, active means well fitted inhibition curve with a large enough effect; inconclusive means small, poorly fitted or top-dose-only effect, or another doubt; inactive means no such curve, though single readings can be large or run the other way. A potency beside an inconclusive call is a rough fit, not a confirmed value. On the % scale 0 is the no-effect control and ±100 the full control effect; potency means the concentration at half of the fitted maximal effect.", "data": [{"biological_target": "Polyunsaturated fatty acid lipoxygenase ALOX12 (Homo sapiens) (UniProt P18054)", "experiment": "Primary qHTS assay for inhibitors of human arachidonate 12S-lipoxygenase (ALOX12): Round 2", "details": "purified 12hLO, xylenol orange hydroperoxide absorbance; activity change, negative = inhibition: at 108 µM (top of the series) unless noted", "procedure,_shortened": "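Purified human 12hLO at 150 nM in 25 mM Hepes, 0.01% Triton X-100, pH 7.0, preincubated 15 min at room temperature with compound. Reaction started with 40 uM arachidonic acid, 30 min at room temperature. Hydroperoxide measured by Fe-xylenol orange, 573/405 nm absorbance ratio.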", "values": [{"compound": "CCCCNC(=S)N(C)/N=C/c1ccc(N(CC)CC)cc1", "Potency": "inconclusive: 20 µM [inhibitor, partial curve, poor fit]"}, {"compound": "Fc1cccc(C2NC(=S)NC3=C2N2CCC3CC2)c1", "note": "(stereo not given)", "Potency": "inconclusive: 100 µM [inhibitor, partial curve, poor fit]"}, {"compound": "Cc1cccc2c1N(C(=O)CN1C(=O)c3ccccc3C1=O)C(C)(C)c1ssc(=S)c1-2", "Potency": "inconclusive: 35.5 µM [inhibitor, partial curve, poor fit]"}, {"compound": "COc1ccc(CCNC(=S)NC(=O)c2ccccc2)cc1OC", "Potency": "inconclusive: 25.1 µM [inhibitor, partial curve, poor fit]"}, {"compound": "O=C1CO[C@H]2CCN(Cc3c[nH]c4ccccc34)CC[C@@H]2N1Cc1ccccc1", "Potency": "inconclusive: 28.2 µM [inhibitor, full curve]"}, {"compound": "Cc1onc(-c2c(F)cccc2Cl)c1C(=O)ONC(=O)c1ccco1", "Potency": "inconclusive: 70.8 µM [inhibitor, partial curve, poor fit]"}, {"compound": "COc1ccc(F)cc1-c1ccc(C=O)cc1", "activity change, negative = inhibition": "inactive: 13.3% [at 12.5 µM]"}, {"compound": "CCc1ccc2c(c1)/C(=C/C(=O)c1cccs1)C(=O)N2", "Potency": "inconclusive: 39.8 µM [inhibitor, partial curve, poor fit]"}, {"compound": "Cc1ccc(OCC(=O)N2CCCCCC2c2nc(C)no2)cc1", "note": "(stereo not given)", "Potency": "inactive"}, {"compound": "CN1CCN(S(=O)(=O)c2cc3ccccc3oc2=O)CC1", "Potency": "inactive"}, {"compound": "CC(=O)NC1C(=O)N(CCOc2ccccc2)c2ccc(C)cc21", "note": "(stereo not given)", "Potency": "inactive"}, {"compound": "CCCCN(Cc1ccccc1)c1ccc(C(=O)O)cc1NS(=O)(=O)c1ccc(C)cc1C", "Potency": "inconclusive: 44.7 µM [inhibitor, partial curve]"}, {"compound": "CN(C)c1ccc(S(=O)(=O)N2CCCCC2)cc1NC(=O)C1CCN(c2ccc(C#N)cn2)CC1", "Potency": "inconclusive: 79.4 µM [inhibitor, single point]"}, {"compound": "CC(=O)c1c(Nc2ccc3c(c2)OCCO3)oc(C)cc1=O", "Potency": "inconclusive: 28.2 µM [inhibitor, partial curve, poor fit]"}, {"compound": "O=[N+]([O-])c1ccc(-c2nc(Nc3cccc(O)c3)c3ccccc3n2)cc1", "Potency": "inconclusive: 56.2 µM [inhibitor, partial curve, poor fit] and inconclusive: 44.7 µM [inhibitor, partial curve, poor fit]"}, {"compound": "Cc1oc2cc(OS(=O)(=O)c3cccs3)ccc2c(=O)c1-c1ccccc1", "Potency": "inconclusive: 56.2 µM [inhibitor, partial curve, poor fit]"}, {"compound": "Cc1ccc(CNC(=O)c2cc3c(s2)-c2cc(C)sc2CC3)cc1", "Potency": "inconclusive: 50.1 µM [inhibitor, partial curve, poor fit]"}, {"compound": "CC(=O)NC(=S)Nc1ccccc1N1CCCCC1", "Potency": "inactive"}, {"compound": "O=C(CSc1nnc(C2CC2)n1C1CC1)Nc1ccc(Cl)c(S(=O)(=O)N2CCCCC2)c1", "Potency": "inactive"}, {"compound": "O=C(NCc1ccco1)c1ccc2c(c1)N(Cc1ccccc1)C(=O)CS2=O", "note": "(stereo not given)", "Potency": "inconclusive: 56.2 µM [inhibitor, single point]"}, {"compound": "C=CCOC(=O)C(C#N)c1nc2ccccc2nc1N1CCN(Cc2ccc3c(c2)OCO3)CC1", "note": "(stereo not given)", "Potency": "inconclusive: 0.631 µM [inhibitor, full curve, poor fit]"}, {"compound": "CCOc1ccc(C2C(C(=O)c3cccs3)=C(O)C(=O)N2Cc2cccnc2)cc1", "note": "(stereo not given)", "Potency": "inconclusive: 3.98 µM [inhibitor, full curve, poor fit]"}, {"compound": "O=C(CN1CCCC1)Nc1ccc(F)cc1", "Potency": "inactive"}, {"compound": "COc1ccc(S(=O)(=O)c2nnn(-c3ccccc3F)c2C)cc1", "Potency": "inconclusive: 70.8 µM [inhibitor, partial curve, poor fit]"}, {"compound": "CC(C)(C)N1CC2([N+](=O)[O-])CN(C(C)(C)C)CC([N+](=O)[O-])(C1)C2", "Potency": "inactive"}, {"compound": "FC(F)(F)c1cccc(-c2cc3c(Nc4ccncc4)nccc3[nH]2)c1", "Potency": "inconclusive: 70.8 µM [inhibitor, single point]"}, {"compound": "COc1ccc2c(c1OC)C(=O)N1c3cccc(Cl)c3C(=O)OC21", "note": "(stereo not given)", "Potency": "inconclusive: 4.47 µM [inhibitor, full curve, poor fit]"}, {"compound": "N#CC1=C2SCN(C3CCCCC3)CN2C(=O)CC1c1c(F)cccc1Cl", "note": "(stereo not given)", "Potency": "inconclusive: 35.5 µM [inhibitor, partial curve, poor fit]"}, {"compound": "CCCN1CCN(c2cc(C(=O)O)c3cc(NC(=O)c4ccccc4C)ccc3n2)CC1", "Potency": "inconclusive: 11.2 µM [inhibitor, full curve]"}, {"compound": "O=S(=O)(NCc1ccccn1)c1cccc2nsnc12", "Potency": "inactive"}, {"compound": "O=C1CS/C(=N/N=C2CCCC2)N1", "Potency": "inactive"}, {"compound": "Cc1ccc(CN=c2c([N+](=O)[O-])nn(-c3cccc(Cl)c3)n2O)cc1", "Potency": "inactive"}, {"compound": "COc1ccc(NC(=O)CSc2nc3ccccc3n2CC(=O)N2CCCCC2C)cc1", "note": "(stereo not given)", "Potency": "inconclusive: 141 µM [inhibitor, single point]"}, {"compound": "CC1=C(C(=O)Nc2ccccc2)C(c2ccco2)C(C#N)=C(SCC(=O)Nc2cccc(C)c2C)N1", "note": "(stereo not given)", "Potency": "inconclusive: 2.82 µM [inhibitor, full curve, poor fit]"}, {"compound": "Cc1ncc(CO)c(CN2CCCCC23Cc2ccccc2CNC3=O)c1O", "note": "(stereo not given)", "Potency": "inconclusive: 31.6 µM [inhibitor, single point]"}, {"compound": "O=C(NCc1cc([N+](=O)[O-])ccc1O)c1cccnc1Sc1ccc(Cl)cc1", "Potency": "inconclusive: 50.1 µM [inhibitor, partial curve, poor fit]"}, {"compound": "O=c1[nH]c(C2CCN(Cc3cccc4ccccc34)CC2)nn1Cc1ccccc1", "Potency": "inactive"}, {"compound": "Cc1ccc2[nH]cc(C(c3ccccc3)c3ccc(C)s3)c2c1", "note": "(stereo not given)", "Potency": "inconclusive: 31.6 µM [inhibitor, partial curve]"}, {"compound": "NC(=O)CCCn1c(C(=O)c2cc(Cl)c(N)c(Cl)c2)c2ccc(C(F)(F)F)cc2[n+]1[O-]", "Potency": "inconclusive: 70.8 µM [inhibitor, partial curve, poor fit]"}, {"compound": "CCc1nc(-c2c3n(c(=O)n(CC(=O)c4ccc(Cl)cc4)c2=O)CCCC3)no1", "Potency": "inconclusive: 56.2 µM [inhibitor, partial curve, poor fit]"}, {"compound": "C=CCOC(=O)C1=C(C)NC(=O)NC1c1cn(-c2ccccc2)nc1-c1cccs1", "note": "(stereo not given)", "Potency": "inconclusive: 44.7 µM [inhibitor, partial curve, poor fit]"}, {"compound": "CCc1ccc(C(=O)Nc2sc(C)c(C)c2C#N)cc1", "Potency": "inconclusive: 20 µM [inhibitor, full curve]"}, {"compound": "Cc1nn(-c2ccc(Cl)c(Cl)c2Cl)c(=O)c2ccccc12", "Potency": "inactive"}, {"compound": "COCCNc1ccnc(-c2cccc(NS(C)(=O)=O)c2)n1", "Potency": "inconclusive: 2 µM [inhibitor, full curve, poor fit]"}, {"compound": "CCOC(=O)c1ccc(-c2ccc(/C=C(\\C#N)c3nc4ccc(C)cc4[nH]3)o2)cc1", "Potency": "inconclusive: 79.4 µM [inhibitor, partial curve, poor fit]"}, {"compound": "Cc1ccc2nc(-c3ccc(C)o3)cc(C(=O)O)c2c1", "Potency": "active: 5.01 µM"}, {"compound": "CC12CCC(=O)C=C1CCC1C2C(O)CC2(C)C(c3csc(N)n3)CCC12", "note": "(stereo not given)", "Potency": "inconclusive: 28.2 µM [inhibitor, partial curve]"}, {"compound": "COCCN1CCn2c(nc3cc(NC(=O)Cn4nc(C)c5ccccc5c4=O)ccc32)C1", "Potency": "inconclusive: 28.2 µM [inhibitor, single point]"}, {"compound": "COc1ccc(CCN(Cc2ccncc2)C(=O)CC2COCCN2)cc1", "note": "(stereo not given)", "Potency": "inconclusive: 17.8 µM [inhibitor, full curve]"}, {"compound": "COc1ccc(N2Cc3c(NCC4CCCCCC4)ncnc3N(C)CC2=O)cc1", "Potency": "inactive"}, {"compound": "O=C(Cc1cccs1)N=Nc1c(O)[nH]c2ccccc12", "Potency": "inactive"}, {"compound": "COC(=O)C1=C2SCC(=O)N2C(N)=C(C#N)C1", "Potency": "inconclusive: 31.6 µM [inhibitor, single point]"}, {"compound": "CCCCn1c(CCC(=O)O)ccc1-c1cccs1", "Potency": "inconclusive: 50.1 µM [inhibitor, partial curve, poor fit]"}, {"compound": "Cc1cccc(CNc2ncnc3ccc(-c4cccc(NS(C)(=O)=O)c4)cc23)c1", "Potency": "inconclusive: 56.2 µM [inhibitor, partial curve, poor fit]"}, {"compound": "COc1ccc(NC(=O)CN(Cc2ccco2)Cc2ccco2)cc1S(=O)(=O)N1CCCCC1", "Potency": "inconclusive: 31.6 µM [inhibitor, single point]"}, {"compound": "CCn1c(=O)c([N+](=O)[O-])c(N2CCSCC2)c2ccccc21", "Potency": "inactive"}, {"compound": "N#C/C(=C(/O)CN1CCCC1)c1nc(-c2ccccc2)cs1", "Potency": "inactive"}, {"compound": "COc1ccc(N2CCN(C(C)C(=O)N3CC(C)OC(C)C3)CC2)cc1", "note": "(stereo not given)", "Potency": "inconclusive: 3.16 µM [inhibitor, full curve]"}, {"compound": "NS(=O)(=O)c1ccc(NC(=S)NCc2cccc(Cl)c2)cc1", "Potency": "inconclusive: 79.4 µM [inhibitor, single point]"}, {"compound": "NC(=O)c1sc2nc3c(c(-c4ccco4)c2c1N)CCC3", "Potency": "inactive"}, {"compound": "CC1Cn2c(C(=O)NCc3cccc(Br)c3)cc3cccc(c32)S1", "note": "(stereo not given)", "Potency": "inactive"}, {"compound": "O=C(O)CCc1ccc(S(=O)(=O)Nc2cccc(C(=O)O)c2)cc1", "Potency": "inconclusive: 39.8 µM [inhibitor, partial curve, poor fit]"}, {"compound": "COc1ccc(C2=NS(=O)(=O)N(C)C(C(=O)NCc3cccs3)=C2)cc1OC", "Potency": "inactive"}, {"compound": "CC(OC(=O)c1cccc(-n2cnnn2)c1)C(=O)Nc1ccc(F)cc1", "note": "(stereo not given)", "Potency": "inconclusive: 50.1 µM [inhibitor, partial curve, poor fit]"}, {"compound": "O=C(CN(C1CCCCC1)S(=O)(=O)c1ccc(Br)cc1)N1CCOCC1", "Potency": "inconclusive: 39.8 µM [inhibitor, partial curve, poor fit]"}]}]}
